# Measurements: paper PMC7721357
# These are yes or no findings as the source states them, for the method shown. Binding seen in cells or lysates may run through a third protein. Some binding calls cover weakened binding; strength is not graded here. Sequences can lack the tags named with a protein.
# T1: Myc-Rv2626c in stable Raw264.7 or THP-1 cells (Mycobacterium tuberculosis H37Rv) (UniProt P9WJA3)
# T1 sequence: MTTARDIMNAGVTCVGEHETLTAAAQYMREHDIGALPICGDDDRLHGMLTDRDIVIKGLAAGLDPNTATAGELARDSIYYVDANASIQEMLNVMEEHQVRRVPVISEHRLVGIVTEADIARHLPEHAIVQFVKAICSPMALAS
# T2: recombinant His-tagged rRv2626c (Mycobacterium tuberculosis H37Rv) (UniProt P9WJA3)
# T2 sequence: T1 sequence
# B1: endogenous TRAF6 of mouse cells (protein, UniProt P70196 1-530)
# chain: MSLLNCENSCGSSQSSSDCCAAMAASCSAAVKDDSVSGSASTGNLSSSFMEEIQGYDVEFDPPLESKYECPICLMALREAVQTPCGHRFCKACIIKSIRDAGHKCPVDNEILLENQLFPDNFAKREILSLTVKCPNKGCLQKMELRHLEDHQVHCEFALVNCPQCQRPFQKCQVNTHIIEDCPRRQVSCVNCAVSMAYEEKEIHDQSCPLANIICEYCGTILIREQMPNHYDLDCPTAPIPCTFSVFGCHEKMQRNHLARHLQENTQLHMRLLAQAVHNVNLALRPCDAASPSRGCRPEDPNYEETIKQLESRLVRQDHQIRELTAKMETQSMYVGELKRTIRTLEDKVAEMEAQQCNGIYIWKIGNFGMHLKSQEEERPVVIHSPGFYTGRPGYKLCMRLHLQLPTAQRCANYISLFVHTMQGEYDSHLPWPFQGTIRLTILDQSEALIRQNHEEVMDAKPELLAFQRPTIPRNPKGFGYVTFMHLEALRQGTFIKDDTLLVRCEVSTRFDMGGLRKEGFQPRSTDAGV
# Experiments:
# [1] = molecular target: T1, Myc-Rv2626c in stable Raw264.7 or THP-1 cells (Mycobacterium tuberculosis H37Rv); test: co-IP
# [2] = molecular target: T2, recombinant His-tagged rRv2626c (Mycobacterium tuberculosis H37Rv); test: co-IP; THP-1 cells and BMDMs stimulated with rRv2626c (2.5 μg/ml) for the indicated times; IP with αHis or αTRAF6, IB with αTRAF6 and αHis; only the target purified
binder,measurement,setting,value
B1,binding,[1],binds
same,binding,[2],binds
